PubChem BioAssay AID504774 – Drosophila RNAi Screening Center – 2011
Aim: 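Knock-downs that shift viability of MMS-exposed cells relative to untreated ones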 (primary screen). System: Drosophila Kc167 cells. Reagent: long dsRNA against Drosophila genes, about 0.25 µg dsRNA per well. Duration: about 6 days: 3 days knock-down, then 3 days with or without MMS. Treatment: methyl methanesulphonate 0.004% (w/v) for 3 days after knock-down. Measurement: 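ATP-dependent luminescence as a measure of live cells in MMS-exposed wells, quantile normalised within each plate, with replicate values also given as a mean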. Direction: mean viability with MMS: higher = more surviving cells after MMS.
In all, the deposit lists about 23,000 reagents; below is a random part of those that have a named target and a result. 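Values are quantile-normalised luminescence on an arbitrary scale; higher means more cells surviving MMS.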 A plus sign joins genes that one reagent is predicted to hit. Not all columns of the deposit are shown. No sequences are given here.

predicted target	DRSC id	mean viability with MMS
CG44774	DRSC18342	3.49e6
Fum4	DRSC22577	3.72e6
BomS5	DRSC22306	3.50e6
apt	DRSC04671	3.17e6
apt	DRSC23278	3.17e6
Mcr	DRSC03366	3.57e6
CG12680	DRSC17871	3.53e6
CG32413	DRSC21591	3.62e6
lds	DRSC16988	3.51e6
DCP2	DRSC10597	3.46e6
CG13694	DRSC00363	3.50e6
mbl	DRSC05657	3.62e6
mbl	DRSC06449	3.24e6
mbl	DRSC07651	3.46e6
mbl	DRSC23188	3.51e6
Den1	DRSC07195	3.63e6
Osi15	DRSC12178	3.47e6
BomS2	DRSC21488	3.58e6
CG2818	DRSC00540	3.72e6
CG15753 (retired record)	DRSC19718	2.80e6
CG15753 (retired record)	DRSC22985	3.55e6
CG14132	DRSC10136	3.72e6
TwdlW	DRSC15540	3.55e6
CG10874	DRSC00297	3.61e6
nudC	DRSC11096	3.40e6
nudC	DRSC11097	3.43e6
Obp56d	DRSC06064	3.49e6
CG6712	DRSC02981	3.66e6
CG6712	DRSC21690	3.39e6
dj-1beta	DRSC14599	3.56e6
CR31700	DRSC03682	3.66e6
CG10209	DRSC05980	3.47e6
mxc	DRSC17819	3.40e6
p23	DRSC15158	3.55e6
CG4866	DRSC06899	3.64e6
CG6729	DRSC02984	3.59e6
CG6729	DRSC22793	3.47e6
CG7252	DRSC10789	3.65e6
CG7252	DRSC21492	3.75e6
CG17826	DRSC10289	3.60e6
Nepl21	DRSC14133	3.44e6
pncr003:2L (retired record)	DRSC22149	3.39e6
LSm1	DRSC04458	3.72e6
CG13380 + CG4174	DRSC09988	3.55e6
CG13380 + CG4174	DRSC10406	3.53e6
MtnB	DRSC22744	3.70e6
PpV	DRSC18700	3.32e6
PpV	DRSC23307	3.47e6
babo	DRSC07581	3.56e6
CG5707	DRSC08573	3.44e6
a6	DRSC18733	3.55e6
Ald2	DRSC15799	3.19e6
GEFmeso	DRSC06748	3.49e6
GEFmeso	DRSC06940	3.52e6
GEFmeso	DRSC21475	3.52e6
CG14480	DRSC06452	3.76e6
CG11741	DRSC14367	3.69e6
CG14634	DRSC17944	3.74e6
CG12516	DRSC14524	3.65e6
tpr	DRSC04468	3.57e6
Cog3	DRSC00585	3.50e6
CG10513	DRSC14248	3.44e6
ball	DRSC14145	3.47e6
Lkb1	DRSC16481	3.48e6
Acp1	DRSC01854	3.60e6
CG14770	DRSC17947	3.49e6
FRG1	DRSC10648	3.69e6
CG10019	DRSC00279	3.18e6
